Where a name gives a salt, the structure may show the parent alone. Some of the results follow. Single values are uncertain, as repeats are few or missing.
test system: Reh; assay: S-phase gammaH2AX median, Z-score vs plate median (drug alone); higher = more S-phase DNA damage; settings: MK1775 concentration 0 nM; 10 µM; 4 h

Row | SMILES | S-phase gammaH2AX median (Z-score)
1 | c1ccc2c(CC3=NCCN3)cccc2c1 [Naphazoline hydrochloride] | 0.0639
2 | O=C(O)[C@@H]1C[C@H](C(=O)O)N1 [cis-Azetidine-2,4-dicarboxylic acid] | 0.0796
3 | CC(C=CC(=O)NO)=CC(C)C(=O)c1ccc(N(C)C)cc1 (stereo unspecified) [Trichostatin A (TSA)] | 0.174
4 | CCN(CC)CC(=O)Nc1c(C)cccc1C [Lidocaine hydrochloride] | 0.125
5 | Nc1ncnc2c1nc(Br)n2C1OC2COP(=O)(O)O[C@@H]2C1O (stereo partly specified) [8-Bromo-cAMP sodium] | 0.00971
6 | Ic1ccc(N2CCN(Cc3c[nH]c4ncccc34)CC2)cc1 [L-750,667 trihydrochloride] | -0.111
7 | COc1cccc2c1C(=O)c1c(O)c3c(c(O)c1C2=O)C[C@@](O)(C(C)=O)C[C@@H]3O[C@H]1C[C@H](N)[C@H](O)[C@H](C)O1 [Daunorubicin HCl (Daunomycin HCl)] | -0.0754
8 | CNC(=O)c1cc(Oc2ccc(NC(=O)Nc3ccc(Cl)c(C(F)(F)F)c3)cc2)ccn1 [Sorafenib (Nexavar)] | -0.0824
9 | O=C(Nc1cccc(C(=O)Nc2ccc(S(=O)(=O)O)c3cc(S(=O)(=O)O)cc(S(=O)(=O)O)c23)c1)Nc1cccc(C(=O)Nc2ccc(S(=O)(=O)O)c3cc(S(=O)(=O)O)cc(S(=O)(=O)O)c23)c1 | -0.0166
10 | N#CCNC(=O)c1ccc(-c2ccnc(Nc3ccc(N4CCOCC4)cc3)n2)cc1 | 0.00348
11 | O=C(/C=C/c1ccc(O)cc1)c1ccc(O)cc1O [Isoliquiritigenin] | 0.186
12 | COC1(C2=NCCN2)COc2ccccc2O1 (stereo unspecified) | -0.174
13 | CC(C)NC[C@@H](O)COc1ccc(CC(N)=O)cc1 [R(+)-Atenolol] | -0.0175
14 | CN(C)CCCN=c1c2ccccc2n(C)c2[nH]c(=O)n(C)c(=O)c12 | 0.07
15 | Nc1cc(=O)[nH]c(N)n1 [2,6-Diamino-4-pyrimidinone] | 0.0693
16 | N[C@@H](Cc1c[nH]c2ccccc12)C(=O)O [L-Tryptophan] | -0.1
17 | COc1cc2nccc(Oc3ccc(NC(=O)NC4CC4)c(Cl)c3)c2cc1C(N)=O [E7080 (Lenvatinib)] | 0.0715
18 | CCn1c(=O)[nH]c2cc(Cl)c(Cl)cc21 | -0.0346
19 | CC[C@@H]1C(=O)OC[C@@H]1Cc1cncn1C [(+)-Pilocarpine hydrochloride] | -0.0946
20 | CC[C@@H]1C(=O)OC[C@@H]1Cc1cncn1C [Pilocarpine nitrate] | -0.00473
21 | CN1C(=O)CC[C@H]1c1cccnc1 [(-)-Cotinine] | -0.068

Row | SMILES | S-phase gammaH2AX median (Z-score)
22 | COC(=O)[C@H](NC(=O)c1cc(-c2ccccc2)nc2ccccc12)c1ccccc1 | 0.0472
23 | N#Cc1cc2nc(O)c(O)nc2cc1[N+](=O)[O-] [CNQX disodium] | -0.0369
24 | C[C@@H](CN1CCC(Cc2ccccc2)CC1)[C@@H](O)c1ccc(O)cc1 [Ro 25-6981 hydrochloride] | -0.0851
25 | N[C@@H](CS(=O)O)C(=O)O [L-Cysteinesulfinic Acid] | 0.00971
26 | Cc1cc(NC(=O)Nc2ccc3c(ccn3C)c2)sn1 | 0.233
27 | Cc1ccc(=O)n(-c2ccccc2)c1 [Pirfenidone] | -0.116
28 | O=C(Cc1ccc(Cl)c(Cl)c1)OCCN1CCCC1 [AC 915 oxalate] | 0.0524
29 | Nc1cc(Cl)c(NC2=NCCN2)c(Cl)c1 [p-Aminoclonidine hydrochloride] | -0.068
30 | NO [Hydroxylamine hydrochloride] | -0.0945
31 | O=c1[nH]c2ccccc2n1CCCN1CCN(C(c2ccccc2)c2ccccc2)CC1 [Oxatomide] | -0.0118
32 | Nc1nc(Cl)nc2c1ncn2[C@@H]1O[C@H](CO)[C@@H](O)[C@H]1O [2-Chloroadenosine] | 0.551
33 | CC(C)OC(=O)C1=CN(C(=O)c2ccc(F)c(F)c2)CC(C)(C)c2c1[nH]c1ccccc21 | 0.134
34 | Cc1ccc(F)c(NC(=O)Nc2ccc(-c3cccc4[nH]nc(N)c34)cc2)c1 [Linifanib (ABT-869)] | -0.107
35 | C[N+](C)(C)CC(=O)O [Betaine hydrochloride] | 0.0447
36 | CC[C@H](CO)Nc1nc(NCc2ccccc2)c2ncn(C(C)C)c2n1 [Roscovitine] | -0.464
37 | CC[C@H](CO)Nc1nc(NCc2ccccc2)c2ncn(C(C)C)c2n1 [Roscovitine (Seliciclib, CYC202)] | -0.14
38 | Cc1ccc(NC(=O)c2cccc(C(C)(C)C#N)c2)cc1Nc1ccc2ncn(C)c(=O)c2c1 | 0.07
39 | OCCN(CCO)c1nc(N2CCCCC2)c2nc(N(CCO)CCO)nc(N3CCCCC3)c2n1 [Dipyridamole] | -0.142
40 | NC(N)=NC(=O)c1nc(Cl)c(N2CCCCCC2)nc1N [5-(N,N-hexamethylene)amiloride] | 1.02
41 | CC1=C(CC(=O)O)c2cc(F)ccc2/C1=C\c1ccc(S(C)(=O)=O)cc1 [Sulindac sulfone] | 0.133
42 | Cc1nc2sccn2c(=O)c1CCN1CCC(=C(c2ccccc2)c2ccc(F)cc2)CC1 [Diacylglycerol kinase inhibitor I] | 0.0252

As a short view, some entries already given.
Row | SMILES | S-phase gammaH2AX median (Z-score)
29 | Nc1cc(Cl)c(NC2=NCCN2)c(Cl)c1 [p-Aminoclonidine hydrochloride] | -0.068
30 | NO [Hydroxylamine hydrochloride] | -0.0945
31 | O=c1[nH]c2ccccc2n1CCCN1CCN(C(c2ccccc2)c2ccccc2)CC1 [Oxatomide] | -0.0118
32 | Nc1nc(Cl)nc2c1ncn2[C@@H]1O[C@H](CO)[C@@H](O)[C@H]1O [2-Chloroadenosine] | 0.551

Going on with the list.

Row | SMILES | S-phase gammaH2AX median (Z-score)
43 | O=C1CN(/N=C/c2ccc(-c3ccc([N+](=O)[O-])cc3)o2)C(=O)N1 [Dantrolene sodium] | -0.0063
44 | Nc1[nH]nc2nnc(-c3c(-c4ccccc4)nn4ccccc34)cc12 | -0.0228
45 | O=C(c1ccc2c(c1)OCCO2)N1CCCCC1 | 0.0136
46 | CC(C)CN(C)c1nc(N)c(C(=O)N=C(N)N)nc1Cl [5-(N-Methyl-N-isobutyl)amiloride] | 0.596
47 | C[C@]12C[C@H](O)[C@H]3[C@@H](CCC4=CC(=O)CC[C@@]43C)[C@@H]1CC[C@@H]2C(=O)CO [Corticosterone] | -0.0311
48 | COc1ccc(S(=O)(=O)Nc2cccnc2Nc2ccc(O)cc2)cc1 | 0.046
49 | O=C(CCCCCCC(=O)Nc1ccccc1)NO [Vorinostat (SAHA)] | 0.471
50 | Cc1cc(C)c(NC(=O)C[C@H](CC(=O)O)c2cccc3ccccc23)c(C(=O)N2CCC3(CCCC3)CC2)c1 | -0.22
51 | Oc1ccc(Cn2cc[nH]c2=S)cc1 [1-(4-Hydroxybenzyl)imidazole-2-thiol] | 0.0819
52 | COc1ccccc1N1CCN(CCN(C(=O)c2ccc(F)cc2)c2ccccn2)CC1 [p-MPPF dihydrochloride] | 0.0473
53 | c1ccc(-c2ccccn2)nc1 [2,2'-Bipyridyl] | -0.0724
54 | O=C(O)c1ccc2c(c1)nc(Nc1cccc(Cl)c1)c1ccncc12 [cx-4945 (Silmitasertib)] | -0.205
55 | COc1cc2/c(=N/c3ccc(Br)cc3F)nc[nH]c2cc1OCC1CCN(C)CC1 [Vandetanib (Zactima)] | -0.0769
56 | CCN(CC)C(=S)SSC(=S)N(CC)CC [Disulfiram (Antabuse)] | 0.215
57 | C=C[C@@]1(C)CC(=O)[C@]2(O)[C@@]3(C)[C@@H](O)CCC(C)(C)[C@@H]3[C@H](O)[C@H](OC(C)=O)[C@@]2(C)O1 [Forskolin] | -0.255
58 | Nc1c2c(nc3ccccc13)CCCC2 [9-Amino-1,2,3,4-tetrahydroacridine hydrochloride] | -0.0621
59 | NC(CCCP(=O)(O)O)C(=O)O (stereo unspecified) [(?)-2-Amino-5-phosphonopentanoic acid] | 0.0408
60 | O=C(O)C(Cc1c[nH]c2ccccc12)N1C(=O)c2ccccc2C1=O (stereo unspecified) | -0.0151
61 | CCCCCN(CCCCC)C(=O)C(CCC(=O)O)NC(=O)c1ccc(Cl)c(Cl)c1 (stereo unspecified) [Lorglumide sodium] | -0.173
62 | CC(C)NCC(O)c1ccc(O)c(O)c1 (stereo unspecified) [(?)-Isoproterenol hydrochloride] | -0.29
63 | CC(C)NCC(O)c1ccc(O)c(O)c1 (stereo not drawn) [S(+)-Isoproterenol (+)-bitartrate] | -0.239

Row | SMILES | S-phase gammaH2AX median (Z-score)
64 | CS(=O)(=O)N1CCN(Cc2cc3nc(-c4cccc5[nH]ncc45)nc(N4CCOCC4)c3s2)CC1 | -0.14
65 | NCCSSCCN [Cystamine dihydrochloride] | 0.00971
66 | Nc1nc2c(ncn2COCCO)c(=O)[nH]1 [Acyclovir] | 0.177
67 | COC(=O)c1c(C)[nH]c(C)c1C(=O)c1ccccc1Cc1ccccc1 | -0.0063
68 | COc1cc(C(O)CO)ccc1OS(=O)(=O)O (stereo unspecified) [MHPG sulfate potassium] | 0.101
69 | CN1[C@@H]2CC[C@H]1CC(OC(=O)c1c[nH]c3ccccc13)C2 (stereo partly specified) [3-Tropanyl-indole-3-carboxylate hydrochloride] | -0.187
70 | CCCCCCCCCCCCCCCCCCOCC(COP(=O)([O-])OCC[N+](C)(C)C)OC (stereo unspecified) | -0.00945
71 | COc1ccc(/C=C\c2cc(OC)c(OC)c(OC)c2)cc1O [Combretastatin A4] | -0.0738
72 | CCCC1O[C@@H]2C[C@H]3[C@@H]4CCC5=CC(=O)C=C[C@]5(C)[C@H]4[C@@H](O)C[C@]3(C)[C@]2(C(=O)CO)O1 (stereo partly specified) [Budesonide] | 0.0641
73 | NCCC1CCCC(CCN)N1 (stereo unspecified) [MDL 26,630 trihydrochloride] | -0.0568
74 | CCOC(=O)c1ncn2c1CN(C)C(=O)c1cc(F)ccc1-2 [Flumazenil] | -0.148
75 | O=NN(CCCl)C(=O)NCCCl [Carmustine] | 0.0155
76 | NCC(O)(CS(=O)(=O)O)c1ccc(Cl)cc1 (stereo unspecified) [2-Hydroxysaclofen] | -0.0951
77 | N/C(=N\C(=O)c1nc(Cl)c(N)nc1N)NCc1ccc(Cl)c(Cl)c1 [3',4'-Dichlorobenzamil] | -0.498
78 | CC[C@H](NC(=O)c1c(C)c(-c2ccccc2)nc2ccccc12)c1ccccc1 | 0.0699
79 | CC(C(=O)O)c1cccc(C(=O)c2ccccc2)c1 (stereo unspecified) [Ketoprofen] | 0.0661
80 | Nc1nc(N)c2nc(CNc3ccc(C(=O)N[C@@H](CCC(=O)O)C(=O)O)cc3)cnc2n1 [Aminopterin] | 0.109
81 | O=C1O/C(=C/Br)CCC1c1cccc2ccccc12 (stereo unspecified) [Bromoenol lactone] | -0.113

Reference: the supplement of paper PMC5355238
